# PubChem BioAssay AID651640 (Broad Institute, 2012)
# The whole screen tested about 350,000 compounds, of which about 6,000 (1.7%) were called active. The inconclusive results got no clear call from the source; some entries with a clear call stand among them for comparison. Rule as the data show it: active = CPE inhibition above about 20% (passing the limit was not always enough); inconclusive = no clear call, values can overlap the other calls; tested in BHK-21 cells.
# Assay: protection of cells from dengue 2 killing – plate reader, single concentration, primary screen (AID 651640);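 also: 0% = median of neutral control wells and 100% = median of positive control wells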
# Conditions: DENV2-infected cells, cytopathic effect rescue, at 9.99 µM, stronger effect = higher value
row,Structure (SMILES),CPE inhibition
1,CCCNC(=O)N1C[C@@H]2[C@H](c3ccccc31)[C@@H](CO)N2Cc1ccc(F)cc1,inconclusive: 28.4%
2,C[C@H](CO)N1C[C@H](C)[C@@H](CN(C)C(=O)Nc2ccc3c(c2)OCO3)OCc2cn(nn2)CCCC1=O,inconclusive: 53.2%
3,C[C@@H]1CN([C@@H](C)CO)S(=O)(=O)c2ccc(C#Cc3ccccc3F)cc2O[C@@H]1CN(C)C,inactive: 10.2%
4,O=C(O)C[C@H]1C[C@H]2c3cc(NC(=O)Nc4ccccc4)ccc3O[C@H]2[C@@H](CO)O1,inconclusive: 22%
5,COc1ccccc1-c1ocnc1C(=O)N1CCN(C(=O)C(c2ccccc2)c2ccccc2)CC1,inactive: 4.68%
6,CC1=C(C(=O)N(C(C)C)C(C)C)CC(CC(=O)NCCCCc2ccccc2)C(=O)N1Cc1ccc(C(C)(C)C)cc1 (stereo unspecified),inconclusive: 54.7%
7,COc1ccc(S(=O)(=O)N2CCC(C(=O)NC3CCCCC3)CC2)cc1C,inconclusive: 27.6%
8,CO[C@H]1CN(C)C(=O)c2cc(NC(=O)C3CC3)ccc2OC[C@@H](C)N(CCC(F)(F)F)C[C@H]1C,inactive: -2.78%
9,C[C@H](CO)N1C[C@H](C)[C@H](CN(C)Cc2ccc(C(F)(F)F)cc2)Oc2ccc(N(C)C)cc2C1=O,active: 40.1%
10,O=C(NCCCN1CCOCC1)c1sc2ccccc2c1Cl,inactive: 1.14%
11,O=C(Cc1ccccn1)N1CC2(C1)[C@H](c1ccccc1)[C@@H](CO)N2C(=O)c1ccncc1,active: 45.5%
12,COc1ccc(CN(C)C[C@@H]2Oc3ccc(NC(=O)Nc4c(C)noc4C)cc3CC(=O)N([C@H](C)CO)C[C@@H]2C)cc1,active: 40.8%
13,COc1ccc(NC(=O)Nc2ccc3c(c2)CC(=O)N([C@H](C)CO)C[C@@H](C)[C@H](CN(C)C)O3)cc1,inconclusive: 21.8%
14,CNC(=O)C[C@@H]1CC[C@H]2[C@H](COc3ccc(NC(=O)NCc4ccccc4)cc3C(=O)N2C)O1,inactive: 0.507%
15,Cc1csc(NC(=O)CSc2nc(C)nc3c2c(=O)n(C)c(=O)n3C)n1,inconclusive: 46.6%
16,C/C=C/c1ccc2c(c1)O[C@@H](CN(C)C(=O)Nc1cccc(F)c1)[C@H](C)CN([C@H](C)CO)S2(=O)=O,inactive: -2.21%
17,O=C1c2ccccc2C(=O)N1CC1c2ccccc2CCN1C(=O)CN1CCOCC1 (stereo unspecified),inconclusive: 22.6%
18,COC(=O)c1ccccc1NC(=O)NCCc1ccccc1OC,inconclusive: 24.2%
19,Cc1ccccc1-c1ccc([C@H]2[C@@H](CO)N3CCCCN(S(=O)(=O)Cc4ccccc4)C[C@H]23)cc1,inactive: -22.2%
20,OC[C@H]1[C@H](c2ccc(-c3cccc(F)c3)cc2)[C@H]2CN(Cc3cncnc3)CCCCN21,inconclusive: 24.6%
21,CCOc1cc(-c2cc(N)n[nH]2)cc(OCC)c1OCC,inactive: 0.356%
22,CCN(Cc1ccccc1)c1ccccc1,active: 37.4%
23,C[C@H]1CN([C@@H](C)CO)S(=O)(=O)c2ccc(-c3ccc(C#N)cc3)cc2O[C@H]1CN(C)Cc1ccccn1,inactive: -4.71%

# Single entries from above:
# Under CPE inhibition, O=C(O)C[C@H]1C[C@H]2c3cc(NC(=O)Nc4ccccc4)ccc3O[C@H]2[C@@H](CO)O1 is entered as inconclusive: 22%
# Under CPE inhibition, Cc1csc(NC(=O)CSc2nc(C)nc3c2c(=O)n(C)c(=O)n3C)n1 is entered as inconclusive: 46.6%
# Under CPE inhibition, CCN(Cc1ccccc1)c1ccccc1 is entered as active: 37.4%
# Under CPE inhibition, CO[C@H]1CN(C)C(=O)c2cc(NC(=O)C3CC3)ccc2OC[C@@H](C)N(CCC(F)(F)F)C[C@H]1C is entered as inactive: -2.78%

# The listing continues.

row,Structure (SMILES),CPE inhibition
1,C[C@@H]1CCCCO[C@H](CN(C)S(=O)(=O)c2ccccc2)[C@@H](C)CN([C@H](C)CO)C(=O)c2cc(NC(=O)CCC(F)(F)F)ccc2O1,inactive: -7.24%
2,COc1ccc(SCc2noc(C(=O)NC(C)C)c2C(=O)O)cc1,inconclusive: 30.1%
3,CCN(CC1CCCO1)C(=O)C1CCN(C2CCN(Cc3ccccc3C)CC2)CC1 (stereo unspecified),inconclusive: 59.8%
4,C[C@@H]1CCCCO[C@H](CN(C)Cc2ccc3c(c2)OCO3)[C@H](C)CN([C@@H](C)CO)C(=O)c2cc(NS(=O)(=O)c3ccc(F)cc3)ccc2O1,inconclusive: 24%
5,COc1cc(OC)cc(C(=O)NC(C(=O)NNC(=O)c2ccc(C)cc2)C(C)C)c1 (stereo unspecified),inconclusive: 48.7%
6,CSc1nc2ccccc2s1,inactive: 17.2%
7,COc1ccccc1NC(=O)N1CCCCN2[C@@H](CO)[C@H](c3ccc(-c4ccccc4)cc3)[C@@H]2C1,inactive: 4.17%
8,COc1ccc(-c2nc(CN3CCC(C(=O)N4CCOCC4)CC3)c(C)o2)c(OC)c1,active: 43.6%
9,O=[N+]([O-])c1cccc2[nH]ncc12,inconclusive: 21.4%
10,COCC(=O)Nc1ccc2c(c1)C(=O)N(C)C[C@H](OC)[C@H](C)CN(C(=O)c1ccccc1)[C@@H](C)CO2,inconclusive: 49.3%
11,CN(CC(=O)Nc1ccc(Cl)cc1F)C1CCS(=O)(=O)C1 (stereo unspecified),inconclusive: 38.3%
12,O=C(NCC1CC1)[C@@H]1[C@@H](CO)[C@@H]2Cn3c(cccc3=O)[C@H]1N2C(=O)c1ccc(F)cc1,inconclusive: 28.2%
13,CCCCC[C@H]1CN(CCCC)C(=O)[C@@H]1CC(=O)NCc1ccc(OC)cc1,inconclusive: 34.7%
14,COc1ccc(-n2nc(C#N)c(Cl)cc2=O)cc1,inactive: 0.725%
15,CC1CCCCN1C(=O)CN1C(=O)NC2(CCCCC2C)C1=O (stereo unspecified),inconclusive: 28.3%
16,OC1(c2cccc(C(F)(F)F)c2)CCN(CCN2CCCCC2)CC1,inconclusive: 27.6%
17,CCOC(=O)c1c(C)[nH]c(C(=O)OCC(=O)N(CC(C)C)c2c(N)n(Cc3ccccc3)c(=O)[nH]c2=O)c1C,inconclusive: 30.7%
18,CNC[C@@H]1OCCCC[C@H](C)Oc2ccc(NS(C)(=O)=O)cc2C(=O)N([C@@H](C)CO)C[C@@H]1C,active: 132%
19,CS(=O)(=O)N1CC(=O)N2[C@H](CO)[C@@H](c3ccc(C#CCc4ccccc4)cc3)[C@@H]2C1,inactive: -1.4%
20,C[C@H]1CN([C@@H](C)CO)C(=O)c2cc(N(C)C)ccc2O[C@H]1CN(C)Cc1ccccc1,inconclusive: 20.9%
21,O=C1C(=O)N(C/C=C/c2ccccc2)c2ccccc21,inconclusive: 30.8%
22,COc1ccc(C(=O)COC(=O)CCN=C2NS(=O)(=O)c3ccccc32)c(OC)c1,active: 82.5%
23,CN1CCN(C(=O)[C@@H]2[C@@H](CO)[C@@H]3Cn4c(cccc4=O)[C@H]2N3S(=O)(=O)c2ccccc2F)CC1,inconclusive: 26.5%
